Measurements: patent publication US20160039842A1, “OXAZOLO[5,4-C]QUINOLIN-2-ONE COMPOUNDS AS BROMODOMAIN INHIBITORS” (EPIGENETIX, INC., priority 2013, published 2016)
Some entries share one result that the patent states for a list of compounds.

Target: T1, BRD4(BD1) (Homo sapiens, UniProt O60885)
T1 construct: purchased BPS Bioscience
Assay: In Vitro Bromodomain Inhibition Assay (AlphaLISA, H4-tetraacetyl peptide)
Assay type: binding
Settings: His-tagged BRD4(BD1) 200 nM, biotinylated H4-tetraacetyl peptide 200 nM, room temperature
Method: To measure activity of bromodomain inhibitors, a His-epitope tagged BRD4 BD149-170 was purchased from BPS Bioscience. BRD4 binding and inhibition was assessed by monitoring the engagement of biotinylated H4-tetraacetyl peptide (H4K5/8/12/16; AnaSpec #64989-025) with the target using the AlphaLISA technology (Perkin-Elmer). Specifically, in a 384 well OptiPlate, BRD4(BD1) (200 nM final) was pre-incubated with either DMSO (final 1.0% DMSO) or a compound dilution series in DMSO. All reagents were diluted in assay buffer containing 50 mM HEPES (pH 7.4), 100 mM NaCl, 0.1% (w/v) BSA, and 0.05% (w/v) CHAPS. After a 30 minute incubation at room temperature, H4 peptide was added (200 nM final) and the reaction was incubated an additional 30 minutes at room temperature. Alpha. streptavidin donor beads and AlphaLISA nickel chelate acceptor beads were then added to a final concentration of 10 ug/mL each. After one hour, equilibration plates were read on an Envision instrument and IC50s calculated using a four parameter non-linear curve fit.

In the case of “7-(3,5-Dimethylisoxazol-4-yl)-8-methoxy-2-[(3-methylsulfonylphenyl)methoxy]oxazolo[5,4-c]quinoline [Example 53]”, the IC50 is reported as under 1000 nM.
